# Results as given in paper PMC5996148.
# Chains of the proteins cited; added tags and fusions are not shown. Lines headed by an entry give the natural chain unless they say otherwise; changes in a name come on top.
# UniProt P49247: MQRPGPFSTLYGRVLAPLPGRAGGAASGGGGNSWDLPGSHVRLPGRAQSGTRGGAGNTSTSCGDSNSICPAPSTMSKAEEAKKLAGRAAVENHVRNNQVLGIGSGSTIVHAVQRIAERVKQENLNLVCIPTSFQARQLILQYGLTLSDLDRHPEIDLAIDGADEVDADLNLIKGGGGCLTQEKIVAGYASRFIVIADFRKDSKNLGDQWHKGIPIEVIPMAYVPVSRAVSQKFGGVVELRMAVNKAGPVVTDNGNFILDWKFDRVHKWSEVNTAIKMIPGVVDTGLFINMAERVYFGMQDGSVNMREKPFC
# This is one part of the list. For some of these results: Construct or isoform of the protein are uncertain.
# Key:
# Assay in all cases: protein microarray (ProtoArray v5.0), streptavidin-Alexa Fluor 647
# Conditions in all cases: 3'-biotin; 20 mM Tris (pH 7.5), 5 mM MgCl2, 100 mM KCl, 0.1% Tween-20, A/T-rich and random oligonucleotide blockers; temperature not stated; high values mean tight binding
# RPIA = RPIA (UniProt P49247)
# RPLP2 (human) = test system: RPLP2 (human)
# RPS27A (human) = test system: RPS27A (human)
# RPUSD1 (human) = test system: RPUSD1 (human)
# RRN3 (human) = test system: RRN3 (human)
# RSPRY1 (human) = test system: RSPRY1 (human)
# RTN1 = target: T1, RTN1 (UniProt Q16799)
# T1 sequence: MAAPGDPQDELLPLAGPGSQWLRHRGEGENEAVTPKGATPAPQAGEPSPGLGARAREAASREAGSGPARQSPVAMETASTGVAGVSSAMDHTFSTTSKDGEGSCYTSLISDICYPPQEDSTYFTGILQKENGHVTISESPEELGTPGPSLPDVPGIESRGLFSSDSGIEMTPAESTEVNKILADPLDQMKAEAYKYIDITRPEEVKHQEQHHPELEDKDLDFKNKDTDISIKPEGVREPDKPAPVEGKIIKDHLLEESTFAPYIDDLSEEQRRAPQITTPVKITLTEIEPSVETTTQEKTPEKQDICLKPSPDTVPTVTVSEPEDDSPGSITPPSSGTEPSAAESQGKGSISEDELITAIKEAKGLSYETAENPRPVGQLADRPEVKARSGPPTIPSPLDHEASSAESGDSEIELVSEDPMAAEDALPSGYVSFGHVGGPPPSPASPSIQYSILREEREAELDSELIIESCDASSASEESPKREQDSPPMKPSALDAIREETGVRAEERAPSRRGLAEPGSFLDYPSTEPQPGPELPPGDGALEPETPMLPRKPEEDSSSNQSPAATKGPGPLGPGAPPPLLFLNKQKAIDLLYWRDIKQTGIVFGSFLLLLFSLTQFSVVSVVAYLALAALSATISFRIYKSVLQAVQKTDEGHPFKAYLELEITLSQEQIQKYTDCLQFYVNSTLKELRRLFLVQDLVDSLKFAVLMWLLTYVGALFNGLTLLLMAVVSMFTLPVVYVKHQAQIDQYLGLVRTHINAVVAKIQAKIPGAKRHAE
# RTN2 (human) = test system: RTN2 (human)
# RTN4 (human) = test system: RTN4 (human)
# RTP2 (human) = test system: RTP2 (human)
sequence,measurement,setting,value
GGGAGGCTGAGGCAGG [G4-1 biotinylated (PQS2)],binding signal,RPIA,-0.341 z-score
same,binding signal,RPLP2 (human),-0.364 z-score
same,binding signal,RPS27A (human),-0.298 z-score
same,binding signal,RPUSD1 (human),-0.301 z-score
same,binding signal,RRN3 (human),-0.345 z-score
same,binding signal,RSPRY1 (human),-0.291 z-score
same,binding signal,RTN1,-0.339 z-score
same,binding signal,RTN2 (human),-0.302 z-score
same,binding signal,RTN4 (human),-0.341 z-score
same,binding signal,RTP2 (human),-0.312 z-score

# Rewritten as tab-separated lines: part of the list above
sequence	measurement	setting	value
GGGAGGCTGAGGCAGG [G4-1 biotinylated (PQS2)]	binding signal	RPLP2 (human)	-0.364 z-score
same	binding signal	RTN2 (human)	-0.302 z-score
